Laboratory results as given in patent US20150232546A1 (THROMBOGENICS, published 2015).
No constants are given. Whether binding was seen depends on the method and setting. Some entries that bind do so weakly or less than the wild type.

T1: human PDGF-C peptide no. 58 (human)
T1 peptide: Biotin-VLQLRPKTGVRGLHK

T2: human PDGF-C peptide no. 19 (human)
T2 sequence (peptide, N-terminally biotinylated): EPSDGTILGRWCGSG

T3: human PDGF-C peptide no. 45 (human)
T3 sequence (peptide, N-terminally biotinylated): EEVRLYSCTPRNFSV

T4: human PDGF-C peptide no. 20 (human)
T4 sequence (peptide, N-terminally biotinylated): TILGRWCGSGTVPGK

T5: human PDGF-C peptide no. 9 (human)
T5 peptide: Biotin-FPHTYPRNTVLVWRL

T6: human PDGF-C peptide no. 24 (human)
T6 sequence (peptide, N-terminally biotinylated): NQIRIRFVSDEYFPS

T7: human PDGF-C peptide no. 40 (human)
T7 sequence (peptide, N-terminally biotinylated): PTWQLLGKAFVFGRK

T8: human PDGF-C peptide no. 7 (human)
T8 sequence (peptide, N-terminally biotinylated): STNGSIHSPRFPHTY

T9: human PDGF-C peptide no. 11 (human)
T9 sequence (peptide, N-terminally biotinylated): LVWRLVAVEENVWIQ

T10: human PDGF-C peptide no. 42 (human)
T10 sequence (peptide, N-terminally biotinylated): VFGRKSRVVDLNLLT

T11: human PDGF-C peptide no. 31 (human)
T11 sequence (peptide, N-terminally biotinylated): PSVLPPSALPLDLLN

T12: human PDGF-C peptide no. 3 (human)
T12 sequence (peptide, N-terminally biotinylated): SSNKEQNGVQDPQHE

T13: human PDGF-C peptide no. 47 (human)
T13 sequence (peptide, N-terminally biotinylated): RNFSVSIREELKRTD

T14: human PDGF-C peptide no. 51 (human)
T14 sequence (peptide, N-terminally biotinylated): GCLLVKRCGGNCACC

T15: human PDGF-C peptide no. 52 (human)
T15 sequence (peptide, N-terminally biotinylated): KRCGGNCACCLHNCN

B1: anti-PDGF-C antibody 2D3 (antibody, IgG1, V domains shown)
VH: EVQLVESGGDLVKPGGSLKLSCAASGFTFSNYGMSWVRQTPDKRLEWVATIGSGGSYTYYPDSVKGRFTISRDSAKNTLYLQMSSLKSEDTAMYYCARQAPLWDYSDYWGQGTTLTVSS
VL: DVLMTQTPLSLPVSLGDQASISCRSNQTIVHSNGDTYLEWYLQKPGQSPNLLIYKVSNRFSGVPDRFSGSGSGTDFTLKISRVEAEDLGVYYCFQGSHVPPTFGGGTKLEIK
notes: Mouse monoclonal from hybridoma, IgG1, kappa; also called mAb 2D3; hybridoma LMBP 9483CB
B2: anti-PDGF-C antibody 16B1 (antibody, IgG1, V domains shown)
VH: EVQLVESGGDLVKPGGSLKLSCAASGFTFSNYGMSWVRQTPDKRLEWVATIGSGGSYTYYPDSVKGRFTISRDSAKNTLYLQMSSLKSEDTAMYYCARQAPLWDYSDYWGQGTTLTVSS
VL: DVLMTQTPLSLPVSLGDQASISCRSNQSIVHSNGDTYLEWYLQKPGQSPKLLIYKVSNRFSGVPDRFSGSGSGTDFTLKISRVEAEDLGVYYCFQGSHVPPTFGGGTKLEIK
notes: Mouse monoclonal from hybridoma, IgG1, kappa; VH same as 2D3, VL same as 5A2; also called mAb 16B1; hybridoma LMBP 9486CB
B3: anti-PDGF-C antibody 29H1 (antibody, IgG1, V domains shown)
VH: EVQLVESGGDLVKPGGSLKLSCAASGFTFSNYGMSWVRQTPDKRLEWVATIGSGGHYTYYPDSVKGRFTISRDSAKSTLYLQMSSLRSDDTAIYYCARQAPLWDCSDYWGQGTTLTVSS
VL: DVLMTQTPLSLPVSLGDQASISCRSNQSIVHSNGDTYLEWYLQKPGQSPNLLIYKVSNRFSGVPDRFSGSGSGTDFTLKISRVEAEDLGVYYCFQGSHVPPTFGGGTKLEIK
notes: Mouse monoclonal from hybridoma, IgG1, kappa; also called mAb 29H1; hybridoma LMBP 9487CB
B4: anti-PDGF-C antibody 5H7 (antibody, IgG1, V domains shown)
VH: EVQLVESGGDLVKPGGSLKLSCAASGFTFSSYGMSWVRQTPDKRLEWVATIGYGGSFTYYPDSMKGRFTISRDNAKNTLFLQMSSLKSEDTAIYYCVRQAPLWDYFDYWGQGTTLTVSS
VL: DVLMTQTPLSLPVSLGDQASISCRSSQTIVHSDGTTYLEWYLQKAGQSPKLLIYKVSNRFSGVPDRFSGSGSGTDFTLKISRVEAEDLGVYYCFQGSHVPPTFGGGTKLEIK
notes: Mouse monoclonal from hybridoma, IgG1, kappa; also called mAb 5H7; hybridoma LMBP 9485CB

Legend:
[1] = target: T1, human PDGF-C peptide no. 58; assay: peptide ELISA, signal to background >3
Method: The indicated peptides where synthesized in an N-terminally biotinylated form and coated onto a neutravidin plate (Thermo Scientific, Cat. 15127) at a concentration of 10 μg/mL. […] Each antibody was tested at least twice, and up to 4 times. A “+” in the table indicate that a signal to background >3 was found and confirmed at least once. The background signal was measured in the absence of peptide using both the primary and the secondary antibodies.

[2] = target: T2, human PDGF-C peptide no. 19 (human); assay: peptide ELISA
[3] = target: T3, human PDGF-C peptide no. 45 (human); assay: peptide ELISA
[4] = target: T4, human PDGF-C peptide no. 20 (human); assay: peptide ELISA
[5] = target: T5, human PDGF-C peptide no. 9; assay: peptide ELISA
[6] = target: T6, human PDGF-C peptide no. 24 (human); assay: peptide ELISA
[7] = target: T7, human PDGF-C peptide no. 40 (human); assay: peptide ELISA
[8] = target: T1, human PDGF-C peptide no. 58; assay: peptide ELISA
[9] = target: T8, human PDGF-C peptide no. 7 (human); assay: peptide ELISA
[10] = target: T9, human PDGF-C peptide no. 11 (human); assay: peptide ELISA
[11] = target: T10, human PDGF-C peptide no. 42 (human); assay: peptide ELISA
[12] = target: T11, human PDGF-C peptide no. 31 (human); assay: peptide ELISA
[13] = target: T12, human PDGF-C peptide no. 3 (human); assay: peptide ELISA
[14] = target: T13, human PDGF-C peptide no. 47 (human); assay: peptide ELISA
[15] = target: T14, human PDGF-C peptide no. 51 (human); assay: peptide ELISA
[16] = target: T15, human PDGF-C peptide no. 52 (human); assay: peptide ELISA

Row | Binder | binding [1] | binding [2] | binding [3] | binding [4] | binding [5] | binding [6] | binding [7] | binding [8] | binding [9] | binding [10] | binding [11] | binding [12] | binding [13] | binding [14] | binding [15] | binding [16]
1 | B1 | binds | no binding (tested: 1 µg/mL) | no binding (tested: 1 µg/mL) | no binding (tested: 1 µg/mL) | no binding (tested: 1 µg/mL) | no binding (tested: 1 µg/mL) | no binding (tested: 1 µg/mL) | binds | no binding (tested: 1 µg/mL) | no binding (tested: 1 µg/mL) | no binding (tested: 1 µg/mL) | no binding (tested: 1 µg/mL) | no binding (tested: 1 µg/mL) | no binding (tested: 1 µg/mL) | no binding (tested: 1 µg/mL) | no binding (tested: 1 µg/mL)
2 | B2 | – | no binding (tested: 1 µg/mL) | no binding (tested: 1 µg/mL) | no binding (tested: 1 µg/mL) | no binding (tested: 1 µg/mL) | no binding (tested: 1 µg/mL) | no binding (tested: 1 µg/mL) | no binding (tested: 1 µg/mL) | no binding (tested: 1 µg/mL) | no binding (tested: 1 µg/mL) | no binding (tested: 1 µg/mL) | no binding (tested: 1 µg/mL) | no binding (tested: 1 µg/mL) | no binding (tested: 1 µg/mL) | no binding (tested: 1 µg/mL) | no binding (tested: 1 µg/mL)
3 | B3 | – | no binding (tested: 1 µg/mL) | no binding (tested: 1 µg/mL) | no binding (tested: 1 µg/mL) | no binding (tested: 1 µg/mL) | no binding (tested: 1 µg/mL) | no binding (tested: 1 µg/mL) | – | no binding (tested: 1 µg/mL) | no binding (tested: 1 µg/mL) | no binding (tested: 1 µg/mL) | no binding (tested: 1 µg/mL) | no binding (tested: 1 µg/mL) | no binding (tested: 1 µg/mL) | no binding (tested: 1 µg/mL) | no binding (tested: 1 µg/mL)
4 | B4 | – | no binding (tested: 1 µg/mL) | no binding (tested: 1 µg/mL) | no binding (tested: 1 µg/mL) | no binding (tested: 1 µg/mL) | no binding (tested: 1 µg/mL) | no binding (tested: 1 µg/mL) | – | no binding (tested: 1 µg/mL) | no binding (tested: 1 µg/mL) | no binding (tested: 1 µg/mL) | no binding (tested: 1 µg/mL) | no binding (tested: 1 µg/mL) | no binding (tested: 1 µg/mL) | no binding (tested: 1 µg/mL) | no binding (tested: 1 µg/mL)
